# Reference: PubChem BioAssay (NCATS)
# Inconclusive results, whose numbers are uncertain, are shown with a selection of clear calls. For part of these data: Potencies of inconclusive entries are doubtful fits and often do not repeat. The source made the active and inactive calls. Calls come from the whole dose curve; as a rule, active = well fitted curve in the direction sought with a large enough effect; inconclusive = small, poorly fitted or top-dose-only effect, or another doubt; inactive = no such curve, though single readings can be large; an effect the other way counts as inactive or inconclusive.
# Key:
# [1] = Quantitative High-Throughput drug screen in 47 multiple myeloma cell lines against the NCATS MIPE library collection: INA6_PLB cell viability assay (AID 1918965; note: nearly all actives have a fitted effect of over 55% in size)
# In short: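 CellTiter-Glo ATP luminescence gave viability after 48 h compound treatment at 37C of 500 multiple myeloma cells per well. Normalisation used DMSO-only wells as 100% and media-only wells as 0% viability; primary qHTS of approved and investigational drugs.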
# [2] = Quantitative High-Throughput drug screen in 47 multiple myeloma cell lines against the NCATS MIPE library collection: JJN3_DSMZ cell viability assay (AID 1918966; note: nearly all actives have a fitted effect of over 50% in size)
# In short: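 qHTS of the MIPE 4.0 collection: 500 myeloma cells/well, 48 h drug exposure at 37C in 5% CO2, then CellTiter-Glo for 5 min at room temperature before luminescence reading.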
# [3] = Quantitative High-Throughput drug screen in 47 multiple myeloma cell lines against the NCATS MIPE library collection: VP6_DJ cell viability assay (AID 1919867); details: ATP luminescence, 48 h; viability (% of DMSO): at 45.8 µM (top of the series); note: nearly all actives have a fitted effect of over 40% in size
# In short: (§1)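 ATP-based CellTiter-Glo luminescence after 48 h drug exposure (37 °C, 5% CO2) of 500 myeloma cells per well. DMSO-only wells set 100% viability, media-only wells 0%; MIPE 4.0 library added by pin tool.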
# [4] = test system: HeLa; assay: Primary qHTS to identify gynecologic anti-cancer compounds using libraries of approved drugs and bioactive compounds (AID 1345084); details: Gynecologic cancer cell panel viability, ATPlite luminescence, 48 h; series mostly up to 57.5 µM; note: nearly all actives have a fitted effect of over 55% in size; for activity change, negative = cytotoxicity: % is set by controls: 0 for no effect and ±100 for the full control effect
# In short: (§2)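 Five-concentration response, 48 h; readout is ATP-driven luciferase luminescence.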
# [5] = test system: Hek293T; assay: as above; details: Gynecologic cancer cell panel viability, ATPlite luminescence, 48 h, control line for the selectivity index; series mostly up to 57.5 µM
# In short: as §2
# [6] = qHTS of pediatric cancer cell lines to identify multiple opportunities for drug repurposing: Confirmatory screen for RD cells (AID 1347124); details: RD rhabdomyosarcoma cell viability; activity change, negative = cytotoxic: at 45.9 µM (top of the series) unless noted;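 note: cells exposed to compound for 48 h before viability readout; nearly all actives have a fitted effect of over 65% in size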
# In short: (§3)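 Cells (500-1,000/well) rested 5 h, then received compounds for 48 h; metabolically active cells were measured by CellTiter-Glo luminescence. Final concentrations spanned up to 46 µM (MIPE, 11-point) or 0.59 nM-46 µM (NPC, 8-point) in primary screens, 11-point in follow-ups.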
# [7] = qHTS of pediatric cancer cell lines to identify multiple opportunities for drug repurposing: Confirmatory screen for OHS-50 cells (AID 1347128)
# In short: as §3
# [8] = Quantitative High-Throughput drug screen in 47 multiple myeloma cell lines against the NCATS MIPE library collection: PE2_PLB cell viability assay (AID 1919869); details: PE2_PLB myeloma cells viability, ATP luminescence, 48 h; viability (% of control): at 45.8 µM (top of the series); note: nearly all actives have a fitted effect of over 35% in size
# In short: as §1
# [9] = Quantitative High-Throughput drug screen in 47 multiple myeloma cell lines against the NCATS MIPE library collection: XG1_PLB cell viability assay (AID 1919866); note: nearly all actives have a fitted effect of over 35% in size
# In short: as §1
# [10] = test system: CAOV3; assay: Primary qHTS to identify gynecologic anti-cancer compounds using libraries of approved drugs and bioactive compounds (AID 1345084); details: Gynecologic cancer cell panel viability, ATPlite luminescence, 48 h; series mostly up to 57.5 µM; note: nearly all actives have a fitted effect of over 55% in size; for activity change, negative = cytotoxicity: % is set by controls: 0 for no effect and ±100 for the full control effect
# In short: as §2
# [11] = qHTS of pediatric cancer cell lines to identify multiple opportunities for drug repurposing: Confirmatory screen for NB1643 cells (AID 1347109); note: nearly all actives have a fitted effect of over 45% in size
# In short: as §3
# [12] = qHTS of pediatric cancer cell lines to identify multiple opportunities for drug repurposing: Confirmatory screen for SJ-GBM2 cells (AID 1347116); note: nearly all actives have a fitted effect of over 60% in size;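 for activity change, negative = cytotoxic: plate controls were DMSO for no effect and bortezomib for full effect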
# In short: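 Viability measured as metabolically active cells via CellTiter-Glo luminescence following 48 hours of compound exposure, 11-point dilutions in confirmatory testing. 500-1,000 cells/well plated 5 hours before dosing; controls were DMSO and 2.3 µM bortezomib.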
# [13] = qHTS of pediatric cancer cell lines to identify multiple opportunities for drug repurposing: Confirmatory screen for Saos-2 cells (AID 1347127); note: nearly all actives have a fitted effect of over 60% in size
# In short: as §3
# [14] = Quantitative High-Throughput drug screen in 47 multiple myeloma cell lines against the NCATS MIPE library collection: OPM1_PLB cell viability assay (AID 1918989); note: nearly all actives have a fitted effect of over 40% in size
# In short: as §1
# [15] = Quantitative High-Throughput drug screen in 47 multiple myeloma cell lines against the NCATS MIPE library collection: OCIMY5_PLB cell viability assay (AID 1918988); note: nearly all actives have a fitted effect of over 65% in size
# In short: as §1
# [16] = Primary qHTS for inhibitors of nuclear receptor binding SET domain protein 2 (NSD2) in an RCH-ACV wild type WT cells (2C) (AID 1645877); details: activity change, negative = cell killing: at 44.9 µM (top of the series); note: nearly all actives have a fitted effect of over 70% in size
# [17] = Quantitative High-Throughput drug screen in 47 multiple myeloma cell lines against the NCATS MIPE library collection: MM1R_ATCC cell viability assay (AID 1918981); note: nearly all actives have a fitted effect of over 35% in size
# In short: as §1
# [18] = test system: Tov-21-G; assay: Primary qHTS to identify gynecologic anti-cancer compounds using libraries of approved drugs and bioactive compounds (AID 1345084); details: Gynecologic cancer cell panel viability, ATPlite luminescence, 48 h; activity change, negative = cytotoxicity: at 57.5 µM (top of the series); note: nearly all actives have a fitted effect of over 55% in size; for activity change, negative = cytotoxicity: % is set by controls: 0 for no effect and ±100 for the full control effect
# In short: as §2
# Potency is the fitted concentration of half-maximal effect.
smiles,measurement,setting,value
CNC(=O)c1cc(Oc2ccc(NC(=O)Nc3cc(C(C)(C)C)nn3-c3ccc4ncccc4c3)c(F)c2)ccn1,Potency,[1],active: 3.32 µM
same,Potency,[2],active: 2.96 µM
same,Potency,[3],active: 4.69 µM
same,Potency,[4],"inconclusive: 35.5 µM [cytotoxic, single point]"
same,Potency,[5],"inconclusive: 39.8 µM [cytotoxic, single point]"
COc1cc(=C2C=c3ccccc3=N2)[nH]c1=Cc1[nH]c(C)cc1C,Potency,[6],"inconclusive: 1.55 µM [cytotoxic, full curve, poor fit]"
same,Potency,[7],"inconclusive: 16.5 µM [cytotoxic, partial curve]"
same,Potency,[1],active: 1.18 µM
same,Potency,[8],active: 1.48 µM
Cn1cncc1[C@@](N)(c1ccc(Cl)cc1)c1ccc2c(c1)c(-c1cccc(Cl)c1)cc(=O)n2C,Potency,[1],active: 4.69 µM
same,Potency,[9],active: 0.332 µM
C[C@]12CCC(=O)C=C1CC[C@@H]1[C@@H]2[C@@H](O)C[C@@]2(C)[C@H]1CC[C@]2(O)C(=O)CO,Potency,[10],inconclusive: 44700 nM
same,Potency,[5],inactive
Cc1c(CN2CCN(C(=O)C(C)C)CC2)sc2c(N3CCOCC3)nc(-c3cnc(N)nc3)nc12,Potency,[11],"inconclusive: 1.17 µM [cytotoxic, full curve, poor fit]"
same,Potency,[12],"inconclusive: 3.69 µM [cytotoxic, full curve, poor fit]"
same,Potency,[1],active: 0.235 µM
Cc1cc(Nc2cc(N3CCN(C)CC3)nc(Sc3ccc(NC(=O)C4CC4)cc3)n2)n[nH]1,Potency,[11],active: 4.14 µM
same,Potency,[12],"inconclusive: 32.9 µM [rising, single point]"
same,Potency,[6],"inconclusive: 1.31 µM [cytotoxic, full curve]"
same,Potency,[13],active: 16.5 µM
same,Potency,[7],active: 9.27 µM
same,Potency,[14],active: 5.9 µM
same,Potency,[10],"inconclusive: 316 nM [cytotoxic, full curve, poor fit]"
same,Potency,[4],"inconclusive: 11.2 µM [cytotoxic, partial curve, poor fit]"
same,Potency,[5],"inconclusive: 35.5 µM [cytotoxic, single point]"
Cc1cc(Nc2cc(NC(=O)c3c(Cl)cccc3Cl)ccn2)nc(N)n1,Potency,[13],active: 1.31 µM
same,Potency,[15],"inconclusive: 9.35 µM [cytotoxic, partial curve, poor fit]"
same,Potency,[14],"inconclusive: 3.32 µM [cytotoxic, partial curve, poor fit]"
CC(=O)NC(C)c1ccc(Oc2ccc(OC(C)C)cc2)cc1 (stereo not drawn),Potency,[16],"inconclusive: 12.1 µM [inhibitor, partial curve]"
same,Potency,[1],"inconclusive: 2.09 µM [cytotoxic, full curve, poor fit]"
same,Potency,[17],"inconclusive: 18.7 µM [cytotoxic, partial curve, poor fit]"
same,Potency,[3],"inconclusive: 18.7 µM [cytotoxic, partial curve, poor fit]"
O=c1[nH]nc(Sc2ncc([N+](=O)[O-])s2)n1-c1ccc2c(c1)OCCO2,Potency,[12],active: 13.1 µM
same,Potency,[13],active: 8.27 µM
same,Potency,[7],active: 13.1 µM
same,Potency,[16],active: 7.42 µM
same,Potency,[1],active: 1.18 µM
same,Potency,[2],active: 2.09 µM
same,Potency,[14],active: 2.09 µM
same,Potency,[9],active: 2.09 µM
Cn1c(Nc2ccc(C(F)(F)F)cc2)nc2cc(Oc3ccnc(-c4ncc(C(F)(F)F)[nH]4)c3)ccc21,Potency,[11],active: 20.8 µM
same,Potency,[12],inactive
same,Potency,[6],"inconclusive: 0.0827 µM [cytotoxic, full curve, poor fit]"
same,Potency,[13],"inconclusive: 5.22 µM [cytotoxic, partial curve]"
same,Potency,[7],"inconclusive: 6.57 µM [cytotoxic, partial curve]"
same,Potency,[17],"inconclusive: 16.6 µM [cytotoxic, partial curve]"
same,Potency,[15],active: 9.35 µM
same,Potency,[9],"inconclusive: 8.33 µM [cytotoxic, full curve]"
C[C@@H]1CN(CC(=O)Nc2ccc3c(c2)Cc2cccc(-c4cc(=O)cc(N5CCOCC5)o4)c2S3)C[C@H](C)O1,Potency,[17],active: 16.6 µM
same,Potency,[9],active: 5.9 µM
same,Potency,[3],active: 16.6 µM
CCOc1cc2ncc(C#N)c(Nc3ccc(OCc4ccccn4)c(Cl)c3)c2cc1NC(=O)/C=C/CN(C)C,Potency,[4],"inconclusive: 2.51 µM [cytotoxic, single point]"
same,Potency,[18],"inconclusive: 891 nM [cytotoxic, full curve, poor fit]"
Cn1c(=O)n(-c2ccc(C(C)(C)C#N)cc2)c2c3cc(-c4cnc5ccccc5c4)ccc3ncc21,Potency,[11],"inconclusive: 2.93 µM [cytotoxic, full curve]"
same,Potency,[6],"inconclusive: 1.65 µM [cytotoxic, full curve]"
same,Potency,[13],"inconclusive: 3.69 µM [cytotoxic, full curve]"
same,Potency,[14],"inconclusive: 0.0042 µM [cytotoxic, full curve]"
same,Potency,[9],"inconclusive: 0.0166 µM [cytotoxic, full curve]"
same,viability (% of DMSO),[3],inconclusive: 7.36% [cytotoxic]
same,Potency,[8],"inconclusive: 0.0235 µM [cytotoxic, full curve]"
same,Potency,[10],active: 562 nM
same,Potency,[5],active: 0.794 µM
same,Potency,[18],"inconclusive: 316 nM [cytotoxic, full curve]"

# 17 neighbouring records out of the list so far:
smiles,measurement,setting,value
Cc1cc(Nc2cc(N3CCN(C)CC3)nc(Sc3ccc(NC(=O)C4CC4)cc3)n2)n[nH]1,Potency,[7],active: 9.27 µM
same,Potency,[14],active: 5.9 µM
same,Potency,[10],"inconclusive: 316 nM [cytotoxic, full curve, poor fit]"
same,Potency,[4],"inconclusive: 11.2 µM [cytotoxic, partial curve, poor fit]"
same,Potency,[5],"inconclusive: 35.5 µM [cytotoxic, single point]"
Cc1cc(Nc2cc(NC(=O)c3c(Cl)cccc3Cl)ccn2)nc(N)n1,Potency,[13],active: 1.31 µM
same,Potency,[15],"inconclusive: 9.35 µM [cytotoxic, partial curve, poor fit]"
same,Potency,[14],"inconclusive: 3.32 µM [cytotoxic, partial curve, poor fit]"
CC(=O)NC(C)c1ccc(Oc2ccc(OC(C)C)cc2)cc1 (stereo not drawn),Potency,[16],"inconclusive: 12.1 µM [inhibitor, partial curve]"
same,Potency,[1],"inconclusive: 2.09 µM [cytotoxic, full curve, poor fit]"
same,Potency,[17],"inconclusive: 18.7 µM [cytotoxic, partial curve, poor fit]"
same,Potency,[3],"inconclusive: 18.7 µM [cytotoxic, partial curve, poor fit]"
O=c1[nH]nc(Sc2ncc([N+](=O)[O-])s2)n1-c1ccc2c(c1)OCCO2,Potency,[12],active: 13.1 µM
same,Potency,[13],active: 8.27 µM
same,Potency,[7],active: 13.1 µM
same,Potency,[16],active: 7.42 µM
same,Potency,[1],active: 1.18 µM
